Data reported in PMC4100922.
These are yes or no findings as the source states them, for the method shown. For some of these results: Binding seen in cells or lysates may run through a third protein. Some entries that bind do so weakly or less than the wild type. Where a sequence is shown, tags or fusion partners need not be part of it.

The chains behind the UniProt entries cited, without tags or fusion partners. Where a name states a change or a piece, a line headed by the entry shows the natural chain unless it says otherwise.
UniProt P04050: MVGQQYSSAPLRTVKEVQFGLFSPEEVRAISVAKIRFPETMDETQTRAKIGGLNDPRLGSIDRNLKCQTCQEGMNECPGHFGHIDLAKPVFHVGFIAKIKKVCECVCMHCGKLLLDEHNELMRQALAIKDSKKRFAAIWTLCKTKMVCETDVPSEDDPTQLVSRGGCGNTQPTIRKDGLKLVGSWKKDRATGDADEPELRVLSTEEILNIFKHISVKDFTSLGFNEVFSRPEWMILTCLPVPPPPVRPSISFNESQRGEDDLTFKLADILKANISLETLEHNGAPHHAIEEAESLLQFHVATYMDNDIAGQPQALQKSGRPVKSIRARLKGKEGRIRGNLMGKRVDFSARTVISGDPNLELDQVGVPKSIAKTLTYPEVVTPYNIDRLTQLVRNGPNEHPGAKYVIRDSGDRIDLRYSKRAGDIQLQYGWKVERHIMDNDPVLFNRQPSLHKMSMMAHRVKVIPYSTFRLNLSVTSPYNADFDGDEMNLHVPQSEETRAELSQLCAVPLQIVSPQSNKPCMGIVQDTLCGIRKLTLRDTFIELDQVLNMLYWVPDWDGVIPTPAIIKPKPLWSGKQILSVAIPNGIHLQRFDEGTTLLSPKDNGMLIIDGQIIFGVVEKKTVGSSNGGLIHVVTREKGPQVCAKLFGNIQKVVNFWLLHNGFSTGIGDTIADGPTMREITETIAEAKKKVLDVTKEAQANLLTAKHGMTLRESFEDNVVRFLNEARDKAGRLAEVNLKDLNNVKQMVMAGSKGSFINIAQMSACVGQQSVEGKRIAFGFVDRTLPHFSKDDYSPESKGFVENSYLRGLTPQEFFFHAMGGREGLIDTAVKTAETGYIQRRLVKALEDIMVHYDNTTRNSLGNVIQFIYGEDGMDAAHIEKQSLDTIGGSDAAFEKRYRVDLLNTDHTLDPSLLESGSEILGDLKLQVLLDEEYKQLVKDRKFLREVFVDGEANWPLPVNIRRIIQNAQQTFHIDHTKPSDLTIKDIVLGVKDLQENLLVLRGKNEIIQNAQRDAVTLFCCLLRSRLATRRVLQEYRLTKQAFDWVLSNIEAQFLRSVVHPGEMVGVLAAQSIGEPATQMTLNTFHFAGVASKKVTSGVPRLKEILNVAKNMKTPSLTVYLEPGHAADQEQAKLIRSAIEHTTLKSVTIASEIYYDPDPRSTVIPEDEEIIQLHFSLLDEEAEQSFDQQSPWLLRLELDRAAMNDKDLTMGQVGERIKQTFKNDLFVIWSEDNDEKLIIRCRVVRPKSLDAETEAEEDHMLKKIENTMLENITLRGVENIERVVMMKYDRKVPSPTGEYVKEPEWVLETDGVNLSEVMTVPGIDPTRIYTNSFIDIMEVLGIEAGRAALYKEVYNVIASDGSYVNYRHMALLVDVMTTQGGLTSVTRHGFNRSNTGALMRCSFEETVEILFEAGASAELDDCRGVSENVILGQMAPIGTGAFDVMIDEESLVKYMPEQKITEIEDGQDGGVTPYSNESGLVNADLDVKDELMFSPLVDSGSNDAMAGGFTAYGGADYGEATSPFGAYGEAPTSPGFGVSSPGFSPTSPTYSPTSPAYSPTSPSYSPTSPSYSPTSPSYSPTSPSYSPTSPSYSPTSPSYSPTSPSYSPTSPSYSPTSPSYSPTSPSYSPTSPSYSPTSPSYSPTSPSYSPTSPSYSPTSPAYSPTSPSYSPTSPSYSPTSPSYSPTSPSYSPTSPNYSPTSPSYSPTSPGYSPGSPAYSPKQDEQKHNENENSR

Key:
[1] = biological target: T1, Gal4 DNA-binding domain (GBD) fused to TFIIS (S. cerevisiae) (UniProt P07273); experiment: two-hybrid; Y190 strain; GAD fused to the Rpb1 jaw domain, GBD fused to Bye1, its deletions or TFIIS; X-Gal agarose overlay for β-galactosidase activity
T1 sequence: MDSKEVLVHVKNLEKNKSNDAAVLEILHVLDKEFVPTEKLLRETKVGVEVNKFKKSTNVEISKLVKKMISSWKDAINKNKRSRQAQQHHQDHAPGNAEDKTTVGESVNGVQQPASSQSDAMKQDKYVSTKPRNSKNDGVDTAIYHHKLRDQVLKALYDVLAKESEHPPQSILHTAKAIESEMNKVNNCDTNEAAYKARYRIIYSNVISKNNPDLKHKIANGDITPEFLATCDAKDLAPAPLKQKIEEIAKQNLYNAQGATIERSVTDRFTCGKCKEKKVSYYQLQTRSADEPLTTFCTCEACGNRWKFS

[2] = biological target: T2, Gal4 DNA-binding domain (GBD) fused to Bye1 (whole protein) (S. cerevisiae) (UniProt P36106); experiment: as above
T2 sequence: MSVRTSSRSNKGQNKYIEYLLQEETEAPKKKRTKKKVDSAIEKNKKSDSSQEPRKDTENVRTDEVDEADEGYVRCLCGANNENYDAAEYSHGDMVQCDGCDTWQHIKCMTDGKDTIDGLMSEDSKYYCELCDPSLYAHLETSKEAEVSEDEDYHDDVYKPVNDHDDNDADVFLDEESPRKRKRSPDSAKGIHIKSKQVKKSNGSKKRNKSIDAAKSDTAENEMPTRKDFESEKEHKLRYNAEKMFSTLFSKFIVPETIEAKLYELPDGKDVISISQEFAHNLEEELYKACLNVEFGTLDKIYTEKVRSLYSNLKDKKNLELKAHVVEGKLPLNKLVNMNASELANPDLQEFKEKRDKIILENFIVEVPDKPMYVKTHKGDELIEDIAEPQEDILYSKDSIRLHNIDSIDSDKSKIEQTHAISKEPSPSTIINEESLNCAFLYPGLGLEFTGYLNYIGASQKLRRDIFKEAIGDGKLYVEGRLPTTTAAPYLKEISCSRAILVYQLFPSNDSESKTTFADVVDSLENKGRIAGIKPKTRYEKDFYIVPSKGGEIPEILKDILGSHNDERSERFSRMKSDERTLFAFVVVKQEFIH

[3] = biological target: Rpb1 subunit of RNA polymerase II (S. cerevisiae (endogenous in yeast)) (UniProt P04050); experiment: co-IP; from formaldehyde cross-linked, sonicated chromatin of the Bye1-Myc HA-TFIIS strain; IP as for ChIP on IgG magnetic beads with antibody against Rpb1 (8WG16), Western blot with anti-Myc and anti-HA; IP without antibodies as mock

What does the source list for “Gal4 activation domain (GAD) fused to the jaw domain (aa 1154–1252) of Rpb1 (from UniProt P04050 1154-1252) (domain or fragment)”?
binding [1]: binds; binding [2]: binds

B1: Bye1-Myc (BYpass of Ess1 protein, Myc-tagged) (protein, UniProt P36106 1-594)
chain: MSVRTSSRSNKGQNKYIEYLLQEETEAPKKKRTKKKVDSAIEKNKKSDSSQEPRKDTENVRTDEVDEADEGYVRCLCGANNENYDAAEYSHGDMVQCDGCDTWQHIKCMTDGKDTIDGLMSEDSKYYCELCDPSLYAHLETSKEAEVSEDEDYHDDVYKPVNDHDDNDADVFLDEESPRKRKRSPDSAKGIHIKSKQVKKSNGSKKRNKSIDAAKSDTAENEMPTRKDFESEKEHKLRYNAEKMFSTLFSKFIVPETIEAKLYELPDGKDVISISQEFAHNLEEELYKACLNVEFGTLDKIYTEKVRSLYSNLKDKKNLELKAHVVEGKLPLNKLVNMNASELANPDLQEFKEKRDKIILENFIVEVPDKPMYVKTHKGDELIEDIAEPQEDILYSKDSIRLHNIDSIDSDKSKIEQTHAISKEPSPSTIINEESLNCAFLYPGLGLEFTGYLNYIGASQKLRRDIFKEAIGDGKLYVEGRLPTTTAAPYLKEISCSRAILVYQLFPSNDSESKTTFADVVDSLENKGRIAGIKPKTRYEKDFYIVPSKGGEIPEILKDILGSHNDERSERFSRMKSDERTLFAFVVVKQEFIH
Which binding [3] does the source give for B1 here?
The binding was “binds”.

B2: HA-TFIIS (HA-tagged TFIIS transcription factor) (protein, UniProt P07273 1-309)
chain: MDSKEVLVHVKNLEKNKSNDAAVLEILHVLDKEFVPTEKLLRETKVGVEVNKFKKSTNVEISKLVKKMISSWKDAINKNKRSRQAQQHHQDHAPGNAEDKTTVGESVNGVQQPASSQSDAMKQDKYVSTKPRNSKNDGVDTAIYHHKLRDQVLKALYDVLAKESEHPPQSILHTAKAIESEMNKVNNCDTNEAAYKARYRIIYSNVISKNNPDLKHKIANGDITPEFLATCDAKDLAPAPLKQKIEEIAKQNLYNAQGATIERSVTDRFTCGKCKEKKVSYYQLQTRSADEPLTTFCTCEACGNRWKFS
For B2, which binding [3] is on record?
The binding was “binds weakly”.
